Here are results for one sequence from article doi:10.1101/2023.07.26.550624.

The series deals with His6-MrpC + FruA-DBD-His8. Put plainly: EMSA. As to conditions: appeared cooperative; probe letters rebuilt from the primers and the genome. Background: Mobility shift assays separate free from complexed probe on a gel.

The exact form of at least one protein or probe is not confirmed.

Consider “CCAAGCTTGCTCACGTTGCAGACGGGGTGAGCCTTTGGGGCAATACAGGGTTCAAAGTGAGACGATTGCATGCATCAGCGAACGTTGACGAGCGCTGGTCCTCG (double strand) [dev promoter fragment]”, for which the binding result is “binds”.
